From PubChem BioAssay record AID1159506 (NCATS, 2015).

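Luminescence from an EWS-FLI1 target-promoter (NR0B1) reporter, set against a CMV-promoter reporter, two days after silencing single genes in TC32 Ewing sarcoma cells. Each siRNA was applied at 20 nM. A z-score of the log NR0B1-over-CMV signal, less the median of siRNAs with the same seed; more negative means a stronger specific loss of the NR0B1 reporter.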

This is part of the screen; most of the strongest results are not listed here. Sequences are the guide (antisense) strand, without overhang.

- UAAGGUUAAAGCACAUAGG against TCEAL5 : seed-corrected z-score 0.9568
- UCUAUACUGAGAGCAGUUU against SPINK2 : seed-corrected z-score -0.3336
- UUGGGUUUUUGACUGUUUG against ADH6 : seed-corrected z-score 0.08629
- AGUCUGACAAGGUCCAUUC against SCRN3 : seed-corrected z-score 0.00303
- UCUUUUCGAAGGUCACUGG against C4orf27 : seed-corrected z-score -1.061
- UUCCUUCACGCGUUUCAGG against RPL21P62 : seed-corrected z-score -1.477
- GCGCAGAUCGAAUACCUCC against SMPD5 : seed-corrected z-score 0.1392
- UAACGAAUCACAUGCUCUC against SRPX2 : seed-corrected z-score -0.222
- UUCCGAAUUAUUCUCGUAG against THOC1 : seed-corrected z-score -0.708
- UUUCAUUCAUGAUGCUGCC against YIPF5 : seed-corrected z-score -0.9128
- UCUGUAUAAUGAGACAUGG against HMBOX1 : seed-corrected z-score 0.09529
- UGUUCCUUGAGUUCGCUGC against POLA2 : seed-corrected z-score -0.03753
- UCCUUGAGUAAUUUGUCUC against PAX3 : seed-corrected z-score -0.2149
- AUUGGUUGAAGGUAAGUCC against RSF1 : seed-corrected z-score -0.1549
- UGAACUGCAACGUAGGUCC against SUZ12 : seed-corrected z-score -0.2779
- UCAGCAUCCACAGAGUUCG against FBXO48 : seed-corrected z-score -0.8068
- UAUAUAAGGAGAUCCUCCU against DNAJC19 : seed-corrected z-score 1.053
- UUCCGGUACAUGUUGUCCG against MYO1F : seed-corrected z-score -0.1032
- UAUGGUGGUCUUAUCAUGC against AMELY : seed-corrected z-score 0.1828
- AGUUCGAUCAGUGAUUAUC against DAZL : seed-corrected z-score -0.485
- AUCCUUAAAACCACGGCUC against EIF4A2 : seed-corrected z-score -0.2625
- UACCUGACGUUAUUUCACU against LOC729652 : seed-corrected z-score -0.1233
- AGUAUACUCAGAGAGGACC against RNF169 : seed-corrected z-score 0.6055
- UUUGAGGUCAGCCCGGUAG against GPR153 : seed-corrected z-score 0.08043
- ACAGUAAGAAUACUUAUCC against SC5D : seed-corrected z-score -0.1039
- UGACCUGAAAUACCUGGCC against KLK3 : seed-corrected z-score 1.239
- UAUUCCACACCUGAGAGAC against LINC01257 : seed-corrected z-score 0.5526
- UAUGUAAGUACGUAAAUUG against NAP1L2 : seed-corrected z-score 0.2102
- UACUUUUCGAUGAGCAGCC against PLCB3 : seed-corrected z-score 0.3847
- UGCAAUUCAGUGAUCUUUC against UGT1A10 : seed-corrected z-score 0.5121
- UCUAUCUCCUGCAUUGUCC against SETDB1 : seed-corrected z-score -0.0824
- UCUGGAUAAACACCAACAG against SLC36A3 : seed-corrected z-score 0.1362
- UUGCUAACAAUACUGGAUC against RAPGEF2 : seed-corrected z-score -1.091
- AAAUGGUCCAGGAGCGUGA against SLC6A3 : seed-corrected z-score 0.4469
- UUAGCAAACAUUCCAAACC against DEGS1 : seed-corrected z-score 0.002488
- UGGUGAAGUACUCAUAGGC against BAK1 : seed-corrected z-score -0.9708
- UCCCUUUAGGUAGCUCUGC against CGREF1 : seed-corrected z-score -0.09875

The first 4 entries again:

{"sirna": "UAAGGUUAAAGCACAUAGG", "gene": "TCEAL5", "seed-corrected z-score": "0.9568"}
{"sirna": "UCUAUACUGAGAGCAGUUU", "gene": "SPINK2", "seed-corrected z-score": "-0.3336"}
{"sirna": "UUGGGUUUUUGACUGUUUG", "gene": "ADH6", "seed-corrected z-score": "0.08629"}
{"sirna": "AGUCUGACAAGGUCCAUUC", "gene": "SCRN3", "seed-corrected z-score": "0.00303"}